The series concerns the target DNMT3B MTase domain R670Q (human) (UniProt Q9UBC3). Description: EMSA. The settings on record: 40 nM DNA, 0-800 nM protein; EMSA: 50 mM Tris-HCl pH 8.0, 25% glycerol, 8% glucose, 2 mM DTT, 0.1 mg/mL BSA, 30 min, gel in 0.5x TBE at 4 C; recombinant …; residues 569-853; protein details: His6-MBP removed by TEV.

The exact form of at least one protein or probe is not confirmed. A weaker result is weaker than the reference pair of the same experiment. At least one verdict was read from the data and is not stated in words by the source.

Turning to “GACGACGACGACGACGACGACGACGACGACGACGAC (double strand) [(GAC)12 DNA duplex]”, the binding result is “binds more weakly”.

The values are drawn from paper PMC9307851.
